Counter-ions that a name gives are not always drawn. This is one part of the list. Single values are uncertain here, since repeats match poorly.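 JEG3 cells stably carry tetracycline-induced wild-type human LRH-1, a heavily sumoylated nuclear receptor. APOC3 and MUC1 are SUMO-sensitive transcripts, raised by SUMO-less LRH-1 or UBC9 knockdown, measured by RT-qPCR against TBP and DMSO controls. A robust Z-score above +2 or below -2 marked a primary hit before toxicity and TBP filtering.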
test system: JEG3 expressing hLRH-1; test: APOC3 transcript change (ddCt vs TBP and DMSO), Z-score over library; higher = higher APOC3 expression; conditions: 10 µM; time (hr): 24

| SMILES | APOC3 transcript change (Z-score) |
| --- | --- |
| CN(C)CC/C=C1\c2ccccc2Sc2ccc(Cl)cc21 [chlorprothixene hydrochloride] | -0.17 |
| CC(=O)[C@H]1CC[C@H]2[C@@H]3CC=C4C[C@@H](OC(=O)CCC(=O)O)CC[C@]4(C)[C@H]3CC[C@]12C [pregnenolone succinate] | 0.327 |
| NC(=O)NO [hydroxyurea] | 1.65 |
| Nc1cc(-c2ccncc2)cnc1O [amrinone] | 0.622 |
| NCCC[C@H](N)CC(=O)N[C@H]1CNC(=O)[C@H]([C@H]2C[C@H](O)N=C(N)N2)NC(=O)/C(=C/NC(N)=O)NC(=O)[C@H](CO)NC(=O)[C@H](CO)NC1=O [viomycin sulfate] | 0.422 |
| CN1CCN(C2=Nc3cc(Cl)ccc3Nc3ccccc32)CC1 [Clozapine] | -0.271 |
| CN/C(=C\[N+](=O)[O-])NCCSCc1csc(CN(C)C)n1 [nizatidine] | -0.856 |
| CCCCOC(=O)c1ccc(O)cc1 [butyl paraben] | -0.209 |
| C#C[C@]1(OC(C)=O)CC[C@H]2[C@@H]3CCC4=CC(=O)CC[C@@H]4[C@H]3CC[C@@]21C [norethindrone acetate] | 0.582 |
| N=C(N)NS(=O)(=O)c1ccc(N)cc1 [sulfaguanidine] | -0.423 |
| Sc1[nH]cnc2ncnc1-2 [mercaptopurine] | 0.803 |
| O=C(c1ccccc1)c1ccc2n1CCC2C(=O)O (stereo not given) [ketorolac tromethamine] | 1.89 |
| CC(=O)OCC(=O)[C@@]12OC3(CCCC3)O[C@@H]1C[C@H]1[C@@H]3CCC4=CC(=O)C=C[C@]4(C)[C@@]3(F)[C@@H](O)C[C@@]12C [amcinonide] | 1.61 |
| CCC(=O)OCC(=O)C1(OC(=O)CC)C(C)CC2C3CCC4=CC(=O)C=CC4(C)C3(Cl)C(O)CC21C (stereo not given) [beclomethasone dipropionate] | 0.997 |
| CO/C(O)=C1/C(C)=NC(C)=C(C(=O)OCCN2CCN(C(c3ccccc3)c3ccccc3)CC2)C1c1cccc([N+](=O)[O-])c1 (stereo not given) [manidipine hydrochloride] | 0.332 |
| Cc1ncc([N+](=O)[O-])n1CC(C)O (stereo not given) [secnidazole] | 0.323 |
| NC(=O)c1ccc([N+](=O)[O-])cc1Cl [aklomide] | -0.0538 |
| CC1COc2c(N3CCN(C)CC3)c(F)cc3c(=O)c(C(=O)O)cn1c23 (stereo not given) [ofloxacin] | -0.505 |
| CN1CCN(c2cc3c(cc2F)c(=O)c(C(=O)O)cn3-c2ccc(F)cc2)CC1 [difloxacin hydrochloride] | 0.696 |
| CCCC(C(=O)OCCN(CC)CC)(c1ccccc1)c1ccccc1 [SKF-525A hydrochloride] | 0.408 |
| NC(=O)CC[C@H](N)C(=O)O [L-Glutamine] | 0.294 |
| COc1c2occc2c(OC)c2c(=O)cc(C)oc12 [khellin] | -0.103 |
| NC(=O)C1CCCN1C(=O)C(Cc1c[nH]cn1)NC(=O)C1CCC(=O)N1 (stereo not given) [protirelin] | 0.635 |

| SMILES | APOC3 transcript change (Z-score) |
| --- | --- |
| CN1CCC[C@H]1c1cccnc1 [nicotine ditartrate] | 0.358 |
| CC[C@H](C)C(=O)O[C@H]1C[C@H](O)C=C2C=C[C@H](C)[C@H](CC[C@@H](O)C[C@@H](O)CC(=O)O)[C@H]21 [pravastatin sodium] | 0.185 |
| Oc1[nH]cnc2nncc1-2 [Allopurinol] | -0.458 |
| C=C(NC(=O)C(=C)NC(=O)c1csc(C2=NC3c4csc(n4)C4NC(=O)c5csc(n5)C(C(C)(O)C(C)O)NC(=O)C5CSC(=N5)/C(=C\C)NC(=O)C(C(C)O)NC(=O)c5csc(n5)C3(CC2)NC(=O)C(C)NC(=O)C(=C)NC(=O)C(C)NC(=O)C(C(C)CC)NC2C=Cc3c(C(C)O)cc(nc3C2O)C(=O)OC4C)n1)C(N)=O (stereo not given) [thiostrepton] | -0.206 |
| COc1ccc(C2C(=O)c3ccccc3C2=O)cc1 [anisindione] | 0.221 |
| OCC(S)CS (stereo not given) [dimercaptopropanol] | -0.911 |
| [Li+] [lithium citrate] | -0.442 |
| COc1ccc2nc3cc(Cl)ccc3c(Nc3cc(CN4CCCC4)c(O)c(CN4CCCC4)c3)c2n1 [pyronaridine tetraphosphate] | -0.117 |
| NC(=O)C1(N2CCCCC2)CCN(CCCC(=O)c2ccc(F)cc2)CC1 [pipamperone] | -0.109 |
| C=C[C@@]1(C)CC(=O)[C@@]2(O)[C@](C)(O1)[C@@H](OC(C)=O)[C@@H](O)C1C(C)(C)CC[C@H](O)[C@@]12C (stereo not given in full) [colforsin] | 1.24 |
| CCC(=O)OCC(=O)[C@@]1(OC(=O)CC)[C@H](C)CC2C3C([C@@H](O)C[C@@]21C)[C@@]1(C)C=CC(=O)C=C1C[C@H]3Cl (stereo not given in full) [alclometazone dipropionate] | 0.834 |
| O=S(=O)(O)CCCS(=O)(=O)O [eprodisate disodium] | 0.309 |
| NCc1ccccc1CC(=O)NC1C(=O)N2C(C(=O)O)=C(CSc3nnnn3CC(=O)O)CSC12 (stereo not given) [ceforanide] | 0.101 |
| COc1cc(NS(=O)(=O)c2ccc(N)cc2)nc(OC)n1 [sulfadimethoxine] | 0.251 |
| CC(=O)OCC(=O)[C@@]1(O)[C@H](OC(C)=O)C[C@H]2[C@@H]3CCC4=CC(=O)C=C[C@]4(C)[C@@]3(F)[C@@H](O)C[C@@]21C [triamcinolone diacetate] | 0.106 |
| CN1C2CCC1CC(OC(=O)c1c[nH]c3ccccc13)C2 (stereo not given) [3-Tropanyl-indole-3-carboxylate hydrochloride] | 0.445 |
| CC(C)c1nc(N(C)S(C)(=O)=O)nc(-c2ccc(F)cc2)c1/C=C/[C@@H](O)C[C@@H](O)CC(=O)O [rosuvastatin] | -0.0135 |
| CCCCNc1ccc(C(=O)OCCN(C)C)cc1 [Tetracaine hydrochloride] | -0.864 |
| O=C1OC2(c3ccc(O)cc3Oc3cc(O)ccc32)c2ccccc21 [fluorescein] | 0.157 |
| O=c1[nH]c(=O)n([C@H]2C[C@H](O)[C@@H](CO)O2)cc1C(F)(F)F [trifluridine] | 4.01 |
| Cc1cc(C(C)(C)C)cc(C)c1CC1=NCCN1 [xylometazoline hydrochloride] | -0.162 |
| CC1(C)S[C@@H]2[C@H](NC(=O)COc3ccccc3)C(=O)N2[C@H]1C(=O)O [penicillin v potassium] | -0.6 |

Not a retest: an excerpt of the list.

| SMILES | APOC3 transcript change (Z-score) |
| --- | --- |
| CN1CCC[C@H]1c1cccnc1 [nicotine ditartrate] | 0.358 |
| CC[C@H](C)C(=O)O[C@H]1C[C@H](O)C=C2C=C[C@H](C)[C@H](CC[C@@H](O)C[C@@H](O)CC(=O)O)[C@H]21 [pravastatin sodium] | 0.185 |
| Oc1[nH]cnc2nncc1-2 [Allopurinol] | -0.458 |
